Article PMC5716712
No constants are given. Whether binding was seen depends on the method and setting. For part of these data: Binding seen in cells or lysates may run through a third protein. Some entries that bind do so weakly or less than the wild type. For part of these data: Where a sequence is shown, tags or fusion partners need not be part of it.

By UniProt entry, the sequences of proteins in these tests, tags left out.
UniProt P60484: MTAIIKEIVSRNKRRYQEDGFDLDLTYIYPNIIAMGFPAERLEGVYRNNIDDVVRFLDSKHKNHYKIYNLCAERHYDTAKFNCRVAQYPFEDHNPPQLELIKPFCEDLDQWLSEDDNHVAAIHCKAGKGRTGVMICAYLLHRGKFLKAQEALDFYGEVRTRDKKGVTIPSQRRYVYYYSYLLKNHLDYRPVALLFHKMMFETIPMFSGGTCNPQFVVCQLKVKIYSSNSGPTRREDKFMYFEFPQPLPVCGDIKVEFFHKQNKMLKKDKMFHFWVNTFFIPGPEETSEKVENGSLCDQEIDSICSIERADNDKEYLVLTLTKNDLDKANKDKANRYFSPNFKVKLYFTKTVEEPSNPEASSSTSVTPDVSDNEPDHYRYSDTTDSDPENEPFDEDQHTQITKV

T1: MAD1 (human (endogenous in HCT116)) (UniProt Q9Y6D9)
T1 sequence: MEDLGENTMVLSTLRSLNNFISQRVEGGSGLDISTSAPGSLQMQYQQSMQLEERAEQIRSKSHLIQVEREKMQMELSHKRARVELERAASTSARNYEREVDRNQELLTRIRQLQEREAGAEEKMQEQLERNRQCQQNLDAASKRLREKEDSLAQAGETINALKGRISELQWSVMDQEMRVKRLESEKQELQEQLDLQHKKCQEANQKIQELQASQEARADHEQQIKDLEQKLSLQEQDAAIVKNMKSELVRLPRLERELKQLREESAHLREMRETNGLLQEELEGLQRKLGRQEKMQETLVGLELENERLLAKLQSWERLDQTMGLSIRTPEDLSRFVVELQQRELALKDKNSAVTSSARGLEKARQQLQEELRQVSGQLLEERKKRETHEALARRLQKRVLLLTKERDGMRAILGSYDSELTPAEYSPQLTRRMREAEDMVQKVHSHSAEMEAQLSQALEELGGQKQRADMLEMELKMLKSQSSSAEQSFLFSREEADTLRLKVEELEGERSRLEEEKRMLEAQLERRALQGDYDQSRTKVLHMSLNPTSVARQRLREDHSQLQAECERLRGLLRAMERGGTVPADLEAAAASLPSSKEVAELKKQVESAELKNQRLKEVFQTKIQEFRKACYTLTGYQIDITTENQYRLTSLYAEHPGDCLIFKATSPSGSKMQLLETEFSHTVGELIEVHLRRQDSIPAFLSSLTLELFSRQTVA

T2: S-HA-MAD1 (UniProt Q9Y6D9)
T2 sequence: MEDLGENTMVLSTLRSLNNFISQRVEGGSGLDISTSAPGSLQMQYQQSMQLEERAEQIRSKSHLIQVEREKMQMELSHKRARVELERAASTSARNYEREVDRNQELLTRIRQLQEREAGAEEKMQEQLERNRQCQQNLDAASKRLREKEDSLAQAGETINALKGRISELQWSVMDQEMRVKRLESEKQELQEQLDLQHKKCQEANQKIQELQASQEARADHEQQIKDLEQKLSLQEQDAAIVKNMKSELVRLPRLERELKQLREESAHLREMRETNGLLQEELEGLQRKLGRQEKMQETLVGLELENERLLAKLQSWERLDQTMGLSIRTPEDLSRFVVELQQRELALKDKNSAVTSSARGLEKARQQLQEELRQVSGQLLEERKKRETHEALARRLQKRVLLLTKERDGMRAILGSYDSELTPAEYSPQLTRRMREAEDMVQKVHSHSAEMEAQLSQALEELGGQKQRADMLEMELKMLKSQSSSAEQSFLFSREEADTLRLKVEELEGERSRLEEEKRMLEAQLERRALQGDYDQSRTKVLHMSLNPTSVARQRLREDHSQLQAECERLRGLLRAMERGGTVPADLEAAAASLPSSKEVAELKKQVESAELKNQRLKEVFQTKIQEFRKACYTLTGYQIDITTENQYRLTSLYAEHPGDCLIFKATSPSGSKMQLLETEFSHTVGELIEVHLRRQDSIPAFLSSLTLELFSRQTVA


Key:
[1] = biological target: PTEN (human (endogenous in HCT116)) (UniProt P60484); test: co-IP; endogenous PTEN or MAD1 immunoprecipitated from HCT116 cell extracts and immunoblotted for the other; also from G2 phase cells (12 hours of thymidine block and 8 hours of release)
[2] = biological target: PTEN (human (endogenous in HCT116)) (UniProt P60484); test: condition: only M phase cells (mitotic shake off after 12 hours of nocodazole treatment); co-IP; endogenous PTEN or MAD1 immunoprecipitated from M phase HCT116 cells (mitotic shake off after 12 hours of nocodazole treatment) and immunoblotted for the other
[3] = biological target: T1, MAD1 (human (endogenous in HCT116)); test: immunoblot of extracts prepared without heat treatment; MAD1 blotted in interphase and mitotic extracts of WT and PTEN-/- HCT116 cells; MAD1 protein complexes marked
[4] = biological target: T2, S-HA-MAD1; test: pull-down; S-HA-MAD1 and FLAG-MAD1 co-transfected into PTEN-/- HCT116 cells with or without FLAG-PTEN; S-HA-MAD1 pulled down by S-tag beads, blotted with indicated antibodies
[5] = biological target: S-HA-PTEN (UniProt P60484); test: pull-down; S-HA-PTEN and FLAG-MAD1 transfected into HCT116 cells; PTEN pulled down by S-tag beads, MAD1 detected with a FLAG antibody; without nocodazole
[6] = biological target: S-HA-PTEN (UniProt P60484); test: condition: only with nocodazole treatment (100 ng/ml); pull-down; S-HA-PTEN and FLAG-MAD1 transfected into HCT116 cells; PTEN pulled down by S-tag beads, MAD1 detected with a FLAG antibody; with nocodazole treatment

Row | Binder | binding [1] | binding [2] | binding [3] | binding [4] | binding [5] | binding [6]
1 | MAD1 (protein, UniProt Q9Y6D9 1-718) MEDLGENTMVLSTLRSLNNFISQRVEGGSGLDISTSAPGSLQMQYQQSMQLEERAEQIRSKSHLIQVEREKMQMELSHKRARVELERAASTSARNYEREVDRNQELLTRIRQLQEREAGAEEKMQEQLERNRQCQQNLDAASKRLREKEDSLAQAGETINALKGRISELQWSVMDQEMRVKRLESEKQELQEQLDLQHKKCQEANQKIQELQASQEARADHEQQIKDLEQKLSLQEQDAAIVKNMKSELVRLPRLERELKQLREESAHLREMRETNGLLQEELEGLQRKLGRQEKMQETLVGLELENERLLAKLQSWERLDQTMGLSIRTPEDLSRFVVELQQRELALKDKNSAVTSSARGLEKARQQLQEELRQVSGQLLEERKKRETHEALARRLQKRVLLLTKERDGMRAILGSYDSELTPAEYSPQLTRRMREAEDMVQKVHSHSAEMEAQLSQALEELGGQKQRADMLEMELKMLKSQSSSAEQSFLFSREEADTLRLKVEELEGERSRLEEEKRMLEAQLERRALQGDYDQSRTKVLHMSLNPTSVARQRLREDHSQLQAECERLRGLLRAMERGGTVPADLEAAAASLPSSKEVAELKKQVESAELKNQRLKEVFQTKIQEFRKACYTLTGYQIDITTENQYRLTSLYAEHPGDCLIFKATSPSGSKMQLLETEFSHTVGELIEVHLRRQDSIPAFLSSLTLELFSRQTVA | binds | no binding | binds |  |  | 
2 | FLAG-MAD1 (protein, UniProt Q9Y6D9 1-718) MEDLGENTMVLSTLRSLNNFISQRVEGGSGLDISTSAPGSLQMQYQQSMQLEERAEQIRSKSHLIQVEREKMQMELSHKRARVELERAASTSARNYEREVDRNQELLTRIRQLQEREAGAEEKMQEQLERNRQCQQNLDAASKRLREKEDSLAQAGETINALKGRISELQWSVMDQEMRVKRLESEKQELQEQLDLQHKKCQEANQKIQELQASQEARADHEQQIKDLEQKLSLQEQDAAIVKNMKSELVRLPRLERELKQLREESAHLREMRETNGLLQEELEGLQRKLGRQEKMQETLVGLELENERLLAKLQSWERLDQTMGLSIRTPEDLSRFVVELQQRELALKDKNSAVTSSARGLEKARQQLQEELRQVSGQLLEERKKRETHEALARRLQKRVLLLTKERDGMRAILGSYDSELTPAEYSPQLTRRMREAEDMVQKVHSHSAEMEAQLSQALEELGGQKQRADMLEMELKMLKSQSSSAEQSFLFSREEADTLRLKVEELEGERSRLEEEKRMLEAQLERRALQGDYDQSRTKVLHMSLNPTSVARQRLREDHSQLQAECERLRGLLRAMERGGTVPADLEAAAASLPSSKEVAELKKQVESAELKNQRLKEVFQTKIQEFRKACYTLTGYQIDITTENQYRLTSLYAEHPGDCLIFKATSPSGSKMQLLETEFSHTVGELIEVHLRRQDSIPAFLSSLTLELFSRQTVA |  |  |  | binds | binds | no binding
